Reference: patent US20250115671A1 (BEIGENE, published 2025)
Results are given in words; binding and its absence hold for the method and conditions named. Some results given as binding are weak or reduced against the parent protein; the word gives no strength.

Amino acid sequences for entries named in this document (tags omitted). A change or cut given only in a name is not applied to a line headed by its entry.
UniProt P56484: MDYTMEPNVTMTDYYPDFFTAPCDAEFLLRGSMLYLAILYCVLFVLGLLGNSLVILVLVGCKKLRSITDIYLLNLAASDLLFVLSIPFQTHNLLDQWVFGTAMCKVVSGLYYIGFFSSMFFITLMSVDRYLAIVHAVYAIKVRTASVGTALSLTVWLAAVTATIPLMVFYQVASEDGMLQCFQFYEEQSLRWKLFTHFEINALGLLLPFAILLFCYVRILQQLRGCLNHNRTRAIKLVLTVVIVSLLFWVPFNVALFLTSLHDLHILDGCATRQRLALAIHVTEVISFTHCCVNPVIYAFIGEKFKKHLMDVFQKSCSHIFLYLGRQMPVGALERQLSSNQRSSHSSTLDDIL
UniProt P51685: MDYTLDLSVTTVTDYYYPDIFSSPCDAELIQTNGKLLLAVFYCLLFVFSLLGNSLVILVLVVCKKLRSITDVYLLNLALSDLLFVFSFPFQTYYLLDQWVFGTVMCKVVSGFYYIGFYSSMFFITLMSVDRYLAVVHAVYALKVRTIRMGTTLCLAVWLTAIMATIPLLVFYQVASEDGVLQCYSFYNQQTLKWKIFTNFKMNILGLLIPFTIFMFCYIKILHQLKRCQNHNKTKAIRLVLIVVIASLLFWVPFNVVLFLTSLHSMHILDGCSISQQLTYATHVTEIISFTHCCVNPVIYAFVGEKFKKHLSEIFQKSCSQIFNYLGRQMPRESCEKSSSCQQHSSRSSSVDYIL

What was measured:
[1] = target: human CCR8 N-terminal domain-mouse Fc tag fusion protein (human (CCR8 part), mouse IgG2a Fc); assay: ELISA, plate coated with human CCR8 N-terminal domain-Fc fusion
CCR8_Ch5 (human; mouse) = CCR8_Ch5 (human; mouse) (UniProt P56484); assay: flow cytometry on transfected Expi293 cells, serial dilution
CCR8_Ch1 (mouse; human) = CCR8_Ch1 (mouse; human) (UniProt P51685); assay: as above

Measured: binding

B1: Ch305 (antibody, V domains shown)
VH: QVQMKQSGPSLVQPSQSLSITCTVSGFSLTSYGVHWVRQSPGKGLEWLGVIWRGGTTDYNAAFMSRLSFTKDSSKSQVFFKLNSLQADDTAIYYCAKNRVTTVVAPNFYAMDYWGQGTSVTVSS
VL: DIVMTQSPSSLAVSVGEKVTMSCKSSQSLLYSGNQKNYLAWYQQKPGQSPKLLIYWASTRKSGVPDRLTGSGSGTDFTLTISSVKAEDLAAYYCQQYYTYPLTFGAGTRLEIK
binds: [1] | CCR8_Ch5 (human; mouse) | CCR8_Ch1 (mouse; human)
